Test results published in the RNAGym collection of RNA variant scans (doi:10.1126/science.aae0568).
This sample is rich in variants without activity.

B1: tRNA (parent)
chain: GUUCCGUUGGCGUAAUGGUAACGCGUCUCCCUCCUAAGGAGAAGACUGCGGGUUCGAGUCCCGUACGGAACG

Variants of: B1
Assay: yeast fitness relative to wild type (ratio to wild type); higher = fitter; tRNA-Arg(CCU), competitive growth, 37 C, YPD
Summary of the method: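 Amplicons of the tRNA-Arg(CCU) gene were sequenced, 100-nucleotide paired-end, from the start population and from each end population of a pooled yeast competition. The competition, in six parallel replicates, lasted 24 hours in YPD at 37°C. Fitness relative to wild type was calculated from changes in genotype frequencies. Genotypes had to have ≥ 100 starting reads, and estimates < 0.5 were set to 0.5.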
In the case of GUUCUGUUGGCGUAAUGGUAACGCGUCUCCCUCCUAAGGGGAAGACAGUGGGUUCGAGUCCUGUGCGGAACG [C5U A40G U47A C49U C62U A65G], the yeast fitness is reported as at most 0.5. In the case of GUUCCGUUGGCGUAAUGGUGACGCGUCUCCCUCCUAAGGAGUAGACUGCGGGUUCGAGUCCGAUACGGAACG [A20G A42U C62G G63A], the yeast fitness is reported as at most 0.5. Work on GUUCCGUUAGCGUAAUGGUAUCGGGUCACCCUCCUAAGGAGAAGACUGCGGGUUCGAGUCCCGUACGGAACG [G9A A21U C24G U28A] yielded a yeast fitness of at most 0.5. Work on GGUCCGUUGGUGUAAUCGUCACGCGUCUCCCUCCUAAGGAGAAGACUGAGGGUUCGAGUCCCAUACGGAACG [U2G C11U G17C A20C C49A G63A] yielded a yeast fitness of at most 0.5. With GUUCCGUUGGCGUAAUAGUAACGCGUCUCCUUCCUAAGGAGAAGACUGCGGGUGCGAGUCCCGUACGGAACG [G17A C31U U54G] the yeast fitness was 0.639. In the case of GUUCCGUUGGCGUAAUGGUGACGCGUAUCCCUCCUUAGGAGAAGACUGCGGGUUCGAGUCCCGUACGGAACG [A20G C27A A36U], the yeast fitness is reported as at most 0.5. GUUCCGUUGGCGUAAUGAUAAAGCGUCUCCCUCCUACGGACAAGACUGCGGGUUGGAGUCCCGUACGGAACG [G18A C22A A37C G41C C55G] showed a yeast fitness of at most 0.5. In the case of GUUCCGUUGGCGUAAUGGUAUCGCGUCUCGUUCCUAAGGAGAAGACUCCGGGUUCGAGUCCCGUACGGAACG [A21U C30G C31U G48C], the yeast fitness is reported as 0.753. GUUCCGUUGGAGUAAUGGUAACGGGUCUCCCUCUUAAGGAGAAGACUGCGGGUUCGAGUCCCGUACGGAACG [C11A C24G C34U] showed a yeast fitness of at most 0.5. Variant GUUCCGUUGGUGUAGUGGUAACGCGUCUCCCACCUAAGGAGAAGACUGCGGGUUCGAGUCGUGUACGGUACG [C11U A15G U32A C61G C62U A69U] has a yeast fitness of at most 0.5. GUUCCGUUGGCGUACUGGUAACGCAUCUCCCUCCUAAGGAGACGACUGCGGGUUCGAGUCCCGUACGGAACG [A15C G25A A43C] gave a yeast fitness of at most 0.5. GUUUCGUUAGCGUAAUGGUAAGGCGUCUCCCUCCUAAGGAGAAGACUGCGGGUUCGAGUCCCGUGCGGAACG [C4U G9A C22G A65G] gave a yeast fitness of at most 0.5. Variant GUUCCGUUGGCGUAACGCUAACGCGUCUCCCUCCUAAGGAGAAGCCUGCGGGUUCGCGUCCCGUACGCAACG [U16C G18C A45C A57C G68C] has a yeast fitness of at most 0.5. GUUCCGCUGGGGUAAUGGUAACGCGUCUCCCUCCUAAGCAGAAGACUGCCGGUUCGAGUCCCGUACGGAACG [U7C C11G G39C G50C] gave a yeast fitness of at most 0.5. GUUCCGUUGGCGUAAUGGUAACGCGACUCCCUGCUAAGGAGAAGAUUGCGGGUUGGAGUCCCGUAAGGAACG [U26A C33G C46U C55G C66A] showed a yeast fitness of at most 0.5. For GUUCCGUUGGCGUCAUGGUAACGCGUCUCCCUACUAAGGAGAAGACUACGGGUUCGAGUCCCGUACGGAACG [A14C C33A G48A], the yeast fitness was at most 0.5. GGUCCGUUGGCGUAAUGGUAACGCGUCUCCCUCCUAAGGAGAAGACUGGGGGAUCGAGUCCCGUACGGAACG [U2G C49G U53A] showed a yeast fitness of at most 0.5. For GUUCCGUUGGCGUAACGAUAACGGGUCUCCCUCCUAAGGAGAAGUCUGCGGGUUCGAGGCCCGUACGCAACG [U16C G18A C24G A45U U59G G68C], the yeast fitness was 0.537. With GUUCAGUUGGCGUAAUGGUAACGCGUCUCCCUCCUAAGGAGCAGACUGCGGGUUCGAGUCCCGCACGGAACG [C5A A42C U64C] the yeast fitness was at most 0.5. GUUCCGUUGGCGUAAUGGUAACGCGUCUCCCUCCUAAGGAGUAGACUGCGGAUUCGAGUCCCGUACUGAACG [A42U G52A G67U] gave a yeast fitness of 0.783. For GUACCGUUGGCGUCAUGGUAACGCGUAUCCAUCCUAAGGAGAAGACUGCGGGUUCGAGUCCCGUACGGAACG [U3A A14C C27A C31A], the yeast fitness was at most 0.5. With GUUCCGUUGGAGUAAUCGUAACGCGUCUCCCUCCUAAGGAGAAGACUGCGGGUUCGACUCCCGUACGGAACG [C11A G17C G58C] the yeast fitness was at most 0.5. With GUUCCGUUGGUGUAAAGGUAACGCGUCUCCCUCCUAAGGAGAAGACUGCGGGUUCGAGUCCCGAACGGAACG [C11U U16A U64A] the yeast fitness was 0.514. Variant GUUCCGAUGGCAUAAUGGUAACGCGUCUCCGUCCUAAGGAGAAGACUGCGGGUUCGAGUCCCGAAUGCAACG [U7A G12A C31G U64A C66U G68C] has a yeast fitness of at most 0.5. GUUACGUUGGCGUAAUGGUAACGCGUCUCUCUCCUAAGGAGAAGACUGCGGGUUCGGGUCCCGUACGGAACG [C4A C30U A57G] gave a yeast fitness of at most 0.5. With GUUCCGUUGGCGUCAUGGUAACGCGUCUCCCUCGUAAGGAGAAGACUGUGGGUUUGAGUCCCGUACGGCACG [A14C C34G C49U C55U A69C] the yeast fitness was at most 0.5. GUUCCGUUGGCGCAAUGGUAACGCGUCUCCCUCCUAAGGAGAAGACUGCGGGUUCGAGUGCCGUACAGAACG [U13C C60G G67A] showed a yeast fitness of at most 0.5. Variant GUUUCGUUGGCGUAAUGGUAACGCGGCUCCCUCCUAAGGAGAAGACUGCGGGUUCGAGUCCUGUACGGAACG [C4U U26G C62U] has a yeast fitness of at most 0.5. For GUUCCGUUGGCGUAAUGGUAACGCGUCUCCGUCCUAAGGAGAUGAGUGCGGGUUCGAGGCCCGUACUGAACG [C31G A43U C46G U59G G67U], the yeast fitness was at most 0.5. Variant GUCCCGUUGGCGUAUUGGUAACGCGUCUCCCAGCUAAGGAGAAGACUGCGGGAUCGAGUCCCGUACGGAACG [U3C A15U U32A C33G U53A] has a yeast fitness of at most 0.5. For GUUCUGUUGGCGUAAUGAUAACGCGUCUCACUCCUAAGGAGAAGACUGCGGGUUCGAAUCCCGUACAUAACG [C5U G18A C30A G58A G67A G68U], the yeast fitness was at most 0.5. Work on GUUCCGUUGGCGUAAUGGUAACACGUCUCCCUCCUAAGGAGAAGACUGCGGGUUCGAGCCCCGUACGGAACG [G23A U59C] yielded a yeast fitness of 0.799. With GCUCCGUUGGCGUAAUGGUAACGCGUCUCCCUCCCAAGGAGAAGAUUGCGGGUUGGAGUCCCGUACGGAACG [U2C U35C C46U C55G] the yeast fitness was at most 0.5. In the case of GUUCGGUUGGCGUAAUGGUAACGCGUCUCCCUACUAAGGACAAGACUGCGGGUCCGAGUCCCGUACGGAACG [C5G C33A G41C U54C], the yeast fitness is reported as at most 0.5. With GUUACGUUCGGGUAAUGGUAACGCGUCUCGCUCCUAAGGAGAAGACUGCGGGUUCGAGUCCCGUACGGAACG [C4A G9C C11G C30G] the yeast fitness was at most 0.5. With GUUCCGUUGGCGUAAUGGUAACGCGUCUACCUCCUAGGGAGAAGACUGAGGGUUCGAGUCCCGUACGAAACG [C29A A37G C49A G68A] the yeast fitness was at most 0.5. In the case of GUUGCGUUAGCGUAAUGGUAAUGCGUCUCCCUCCUAAGGAGAAGAGUGCGGGUUCCAGUCCCGUACGGAACG [C4G G9A C22U C46G G56C], the yeast fitness is reported as at most 0.5. With GUUCCGUUGGCGUAAUGGUGACGCGUCUCUCUCCUAAGGAGAAGACUGAGGGUUCGAGUCCUGUACGGAACG [A20G C30U C49A C62U] the yeast fitness was at most 0.5.
